At least one structure is not confirmed: it was looked up by name or label, or the drawing left a doubt.
Tested on: Lactobacillus paracasei viro-01
Assay: Antibiotic sensitivity test (disc)
Type: cell-based
Settings: judged by the zone limits printed per antibiotic (resistant/moderate/sensitive)
Procedure: Antibiotic sensitivity of the Lactobacillus paracasei viro-01 of the present invention were tested. The antibiotic resistance test was carried out by Scientec Lab Center Co., Ltd.(Daejeon city, Daedeok, Korea) approved by the KFDA.
Antibiotics used were Cephalexin, Flumequine, Furazolidone, Gentamycin, Spectinomycin, Tetracycline, Tiamulin, Neomycin, Chloramphenicol and Kanamycin, and test procedures were as described below.
5 to 6 colonies of cultured Lactobacillus paracasei viro-01 were selected, inoculated into bacterial growth medium composed of peptone 10.0 g/L, beef extract 10.0 g/L, yeast extract 5.0 g/L, glucose 20.0 g/L, Tween 80 1.0 mL/L, K2HPO4 2.0 g/L, sodium acetate 5.0 g/L, triammonium citrate 2.0 g/L, MgSO4.7H2O 0.2 g/L and MnSO4.4H2O 0.2 g/L and incubated at 37° C. Turbidity of said culture was adjusted to MacFarland No. 0.5, and used as test bacteria solution. Said test bacteria solution was smeared on Mueller Hinton agar plates and antibiotic sensitivity test disc was added thereto and incubated at 37° C. for 16 hours.
Antibiotic sensitivity was determined by measuring the area of growth inhibition surrounding each test disc.

| SMILES | resistance of Lactobacillus paracasei viro-01 to the antibiotic (content 30 μg/disc) | resistance of Lactobacillus paracasei viro-01 to the antibiotic (content 30 μg/disc, listed as Tetracycline) | resistance of Lactobacillus paracasei viro-01 to the antibiotic (content 10 μg/disc) | resistance of Lactobacillus paracasei viro-01 to the antibiotic (content 10 μg/disc, listed as Kanamycin) |
| --- | --- | --- | --- | --- |
| CN(C)[C@@H]1C(O)=C(C(N)=O)C(=O)[C@@]2(O)C(O)=C3C(=O)c4c(O)cccc4[C@@](C)(O)[C@H]3C[C@@H]12 [tetracycline, Tetracycline] | none | no resistance | – | – |
| NC[C@H]1O[C@H](O[C@H]2[C@H](O)[C@@H](O[C@H]3O[C@H](CO)[C@@H](O)[C@H](N)[C@H]3O)[C@H](N)C[C@@H]2N)[C@H](O)[C@@H](O)[C@@H]1O [kanamycin, Kanamycin] | – | – | strong | resistance |

— patent US7026161B2, “Lactobacillus sp. strain and use thereof” (Sesang Life Science, Inc., priority 2001, dated 2006)
